The values below come from paper PMC6350303.

Protein sequences, listed by entry. Tags and fused reporters are not part of them.
UniProt P35222: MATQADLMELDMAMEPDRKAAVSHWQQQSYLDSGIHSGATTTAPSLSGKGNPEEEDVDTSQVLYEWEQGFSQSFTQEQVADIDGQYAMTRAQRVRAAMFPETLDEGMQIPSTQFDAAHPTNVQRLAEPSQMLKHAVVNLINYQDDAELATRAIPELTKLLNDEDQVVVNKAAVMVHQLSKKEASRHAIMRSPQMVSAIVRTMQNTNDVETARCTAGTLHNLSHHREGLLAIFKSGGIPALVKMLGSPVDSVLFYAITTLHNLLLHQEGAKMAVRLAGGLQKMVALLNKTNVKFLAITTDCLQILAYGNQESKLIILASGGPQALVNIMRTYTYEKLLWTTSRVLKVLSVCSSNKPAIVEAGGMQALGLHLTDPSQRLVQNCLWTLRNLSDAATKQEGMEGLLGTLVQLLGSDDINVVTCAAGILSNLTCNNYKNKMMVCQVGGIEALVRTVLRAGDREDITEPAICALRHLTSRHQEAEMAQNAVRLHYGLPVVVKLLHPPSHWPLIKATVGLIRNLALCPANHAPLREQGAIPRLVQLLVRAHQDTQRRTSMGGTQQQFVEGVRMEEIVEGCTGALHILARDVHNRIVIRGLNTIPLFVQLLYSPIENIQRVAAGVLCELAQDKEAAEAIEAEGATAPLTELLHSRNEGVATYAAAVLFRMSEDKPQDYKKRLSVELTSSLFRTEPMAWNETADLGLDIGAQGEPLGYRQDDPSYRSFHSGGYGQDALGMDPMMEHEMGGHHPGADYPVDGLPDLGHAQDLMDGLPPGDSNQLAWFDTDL

Test [1] deals with T1, Histone deacetylase enzyme-7 (HDAC7), endogenous (human (endogenous in U87 and U251)) (UniProt Q8WUI4).
T1 sequence: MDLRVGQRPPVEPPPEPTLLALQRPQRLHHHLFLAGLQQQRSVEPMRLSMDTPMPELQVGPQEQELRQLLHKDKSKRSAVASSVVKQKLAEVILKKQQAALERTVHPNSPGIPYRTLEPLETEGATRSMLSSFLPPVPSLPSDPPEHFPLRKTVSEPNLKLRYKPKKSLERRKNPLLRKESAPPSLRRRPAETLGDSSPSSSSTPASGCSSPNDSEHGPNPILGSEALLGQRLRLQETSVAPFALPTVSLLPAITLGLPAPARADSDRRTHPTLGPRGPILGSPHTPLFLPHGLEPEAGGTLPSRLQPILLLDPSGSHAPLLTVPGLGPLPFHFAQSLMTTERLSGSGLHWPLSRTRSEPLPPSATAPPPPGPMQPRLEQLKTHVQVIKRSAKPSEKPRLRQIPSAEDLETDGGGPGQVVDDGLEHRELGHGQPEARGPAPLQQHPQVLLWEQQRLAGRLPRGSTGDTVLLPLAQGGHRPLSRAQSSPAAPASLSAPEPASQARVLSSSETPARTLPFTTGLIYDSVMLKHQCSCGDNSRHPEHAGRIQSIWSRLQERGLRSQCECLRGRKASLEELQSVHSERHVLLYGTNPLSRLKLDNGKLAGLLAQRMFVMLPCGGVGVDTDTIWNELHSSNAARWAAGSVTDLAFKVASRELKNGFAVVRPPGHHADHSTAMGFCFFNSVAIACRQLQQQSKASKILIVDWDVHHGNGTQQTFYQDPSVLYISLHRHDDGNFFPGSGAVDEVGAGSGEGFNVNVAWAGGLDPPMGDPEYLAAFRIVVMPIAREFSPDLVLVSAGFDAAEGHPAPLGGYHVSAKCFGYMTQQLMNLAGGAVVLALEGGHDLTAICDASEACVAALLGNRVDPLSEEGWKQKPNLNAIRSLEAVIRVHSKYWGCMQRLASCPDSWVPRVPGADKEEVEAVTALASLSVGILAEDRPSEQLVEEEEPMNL
As to the kind of experiment: co-IP; U87 and U251 cell lysates immunoprecipitated with anti-HDAC7 antibody or control IgG; anti-β-catenin immunoblotting.

Test [2] addresses β-catenin, endogenous (human (endogenous in U87 and U251)) (UniProt P35222). As to the kind of experiment: co-IP; U87 cell lysates immunoprecipitated with anti-ZNF326 or anti-β-catenin antibody and control IgG; immunoblotting.
In test [3] the target is GST-β-catenin (UniProt P35222). As to the kind of experiment: pull-down; glutathione-Sepharose beads coupled with GST or purified GST-β-catenin, incubated with lysates of HEK293 cells transfected with Myc/DDK-pCMV6-ZNF326 overnight at 4 °C (legend: purified Myc-ZNF326, 6 h); immunoblotting; only the target purified. On the technique in general: Immunoblotting shows a protein as a band on a membrane.

These are yes or no findings as the source states them, for the method shown. Binding seen in cells or lysates may run through a third protein. Some binding calls cover weakened binding; strength is not graded here. For part of these data: Sequences can lack the tags named with a protein.

Regarding “β-catenin, endogenous (from UniProt P35222 1-781)”, the binding entry in test [1] is “binds”.

B1: Zinc-finger protein-326 (ZNF326), endogenous (protein, UniProt Q5BKZ1 1-582)
chain: MDFEDDYTHSACRNTYQGFNGMDRDYGPGSYGGMDRDYGHGSYGGQRSMDSYLNQSYGMDNHSGGGGGSRFGPYESYDSRSSLGGRDLYRSGYGFNEPEQSRFGGSYGGRFESSYRNSLDSFGGRNQGGSSWEAPYSRSKLRPGFMEDRGRENYSSYSSFSSPHMKPAPVGSRGRGTPAYPESTFGSRNYDAFGGPSTGRGRGRGHMGDFGSIHRPGIVVDYQNKSTNVTVAAARGIKRKMMQPFNKPSGTFIKKPKLAKPMEKISLSKSPTKTDPKNEEEEKRRIEARREKQRRRREKNSEKYGDGYRMAFTCSFCKFRTFEEKDIELHLESSSHQETLDHIQKQTKFDKVVMEFLHECMVNKFKKTSIRKQQTNNQTEVVKIIEKDVMEGVTVDDHMMKVETVHCSACSVYIPALHSSVQQHLKSPDHIKGKQAYKEQIKRESVLTATSILNNPIVKARYERFVKGENPFEIQDHSQDQQIEGDEEDEEKIDEPIEEEEDEDEEEEAEEVGEVEEVEEVEEVREGGIEGEGNIQGVGEGGEVGVVGEVEGVGEVEEVEELEEETAKEEPADFPVEQPEEN
B1: the binding result in test [2] is recorded as “binds”.

B2: Myc/DDK-ZNF326 (protein, UniProt Q5BKZ1 1-582)
chain: B1 chain
On to B2, for which the binding entry in test [3] is reported as “binds”.
